Laboratory results: the supplement of paper PMC11438910
The list shows a part of the results. The signal is at background level for most entries.

Columns and labels:
Assay in all cases: fluorescence intensity of antibody binding to polysaccharide-coupled beads; higher = stronger binding
[1] = molecular target: pneumococcal polysaccharide C-Poly-1
Protocol: (§1)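 Recombinant rhesus-murine chimeric IgG1 antibodies were tested against antigen-coupled MagPlex beads in a 96-plex Luminex direct immunoassay (dLIA). The beads carried pneumococcal capsular polysaccharides of 93 serotypes plus C-polysaccharides. Antibody was added at 0.1–12,500 ng/mL for 1 h, then PE anti-mouse IgG, and net MFI was read on a Bio-Plex 3D. Only the rhesus variable regions are printed; constant regions are murine IgG1/kappa/lambda, and the signal peptide is MGWSCIILFLVATATGVHS.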

[2] = molecular target: pneumococcal polysaccharide C-Poly-2
Protocol: as §1

[3] = molecular target: pneumococcal polysaccharide Pn1
Protocol: as §1

[4] = molecular target: pneumococcal polysaccharide Pn10A
Protocol: as §1

[5] = molecular target: pneumococcal polysaccharide Pn10B
Protocol: as §1

[6] = molecular target: pneumococcal polysaccharide Pn10C
Protocol: as §1

[7] = molecular target: pneumococcal polysaccharide Pn10F
Protocol: as §1

[8] = molecular target: pneumococcal polysaccharide Pn11A
Protocol: as §1

[9] = molecular target: pneumococcal polysaccharide Pn6A
Protocol: as §1

[10] = molecular target: pneumococcal polysaccharide Pn6B
Protocol: as §1

[11] = molecular target: pneumococcal polysaccharide Pn6C
Protocol: as §1

[12] = molecular target: pneumococcal polysaccharide Pn6D
Protocol: as §1

[13] = molecular target: pneumococcal polysaccharide Pn7A
Protocol: as §1

[14] = molecular target: pneumococcal polysaccharide Pn7B
Protocol: as §1

[15] = molecular target: pneumococcal polysaccharide Pn7C
Protocol: as §1

[16] = molecular target: pneumococcal polysaccharide Pn7F
Protocol: as §1

[17] = molecular target: pneumococcal polysaccharide Pn8
Protocol: as §1

[18] = molecular target: pneumococcal polysaccharide Pn9A
Protocol: as §1

[19] = molecular target: pneumococcal polysaccharide Pn9L
Protocol: as §1

[20] = molecular target: pneumococcal polysaccharide Pn9N
Protocol: as §1

[21] = molecular target: pneumococcal polysaccharide Pn9V
Protocol: as §1

[22] = antibody concentration 0.1 ng/mL
[23] = antibody concentration 0.534724 ng/mL
[24] = antibody concentration 2.8593 ng/mL
[25] = antibody concentration 15.2894 ng/mL
[26] = antibody concentration 81.7561 ng/mL
[27] = antibody concentration 437.17 ng/mL
[28] = antibody concentration 2337.65 ng/mL
[29] = antibody concentration 12500 ng/mL

B1: 4-99.4 (protein)
chain 1: QVQLQESGPGLVKPSETLSLTCAVSGYSISSAYFWGWIRQPPGKGLEYIGYISGEGGKSYYNPSLMSRVTISKDTSKNQFSLKLNTVTAADTAVYYCARRAILVGFDLWGQGVLVTVSS
chain 2: QAAPTQPPSVSGSPGQSVTISCTGSNSDIGYYNAVSWYQQHPGKAPKLMIYEVSKRPSGVSDRLTGSKSGNTASLTISGLQAEDEADYYCSSYAGSNTYIFGTGTRLTVL
With B1 the fluorescence intensity [1, 22] was 27 MFI, the fluorescence intensity [1, 23] was 27 MFI and the fluorescence intensity [1, 24] was 27.5 MFI. For the same binder, the fluorescence intensity [1, 25] was 27 MFI, the fluorescence intensity [1, 26] was 27.8 MFI and the fluorescence intensity [1, 27] was 27 MFI. It also gave a fluorescence intensity [1, 28] of 33 MFI, a fluorescence intensity [1, 29] of 133 MFI and a fluorescence intensity [2, 22] of 21 MFI. The fluorescence intensity [2, 23] was 21.5 MFI, the fluorescence intensity [2, 24] was 22 MFI and the fluorescence intensity [2, 25] was 22 MFI. The fluorescence intensity [2, 26] was 23 MFI, the fluorescence intensity [2, 27] was 23 MFI and the fluorescence intensity [2, 28] was 29 MFI. The fluorescence intensity [2, 29] was 111 MFI, the fluorescence intensity [3, 22] was 14 MFI and the fluorescence intensity [3, 23] was 14 MFI. For the same binder, the fluorescence intensity [3, 24] was 13.5 MFI, the fluorescence intensity [3, 25] was 14.5 MFI and the fluorescence intensity [3, 26] was 14 MFI. It also gave a fluorescence intensity [3, 27] of 15.5 MFI, a fluorescence intensity [3, 28] of 17.5 MFI and a fluorescence intensity [3, 29] of 36.5 MFI. For the same binder, the fluorescence intensity [4, 22] was 27.5 MFI, the fluorescence intensity [4, 23] was 26.5 MFI and the fluorescence intensity [4, 24] was 27.5 MFI. It also gave a fluorescence intensity [4, 25] of 26.5 MFI, a fluorescence intensity [4, 26] of 27.5 MFI and a fluorescence intensity [4, 27] of 27.5 MFI. It also gave a fluorescence intensity [4, 28] of 29 MFI, a fluorescence intensity [4, 29] of 39 MFI and a fluorescence intensity [5, 22] of 24.5 MFI. For the same binder, the fluorescence intensity [5, 23] was 24.5 MFI, the fluorescence intensity [5, 24] was 24.5 MFI and the fluorescence intensity [5, 25] was 22.5 MFI. It also gave a fluorescence intensity [5, 26] of 25 MFI, a fluorescence intensity [5, 27] of 27 MFI and a fluorescence intensity [5, 28] of 27.5 MFI. For the same binder, the fluorescence intensity [5, 29] was 28.5 MFI, the fluorescence intensity [6, 22] was 17.5 MFI and the fluorescence intensity [6, 23] was 16.5 MFI. The fluorescence intensity [6, 24] was 17 MFI, the fluorescence intensity [6, 25] was 17 MFI and the fluorescence intensity [6, 26] was 16.5 MFI. For the same binder, the fluorescence intensity [6, 27] was 17.5 MFI, the fluorescence intensity [6, 28] was 18 MFI and the fluorescence intensity [6, 29] was 21.5 MFI. It also gave a fluorescence intensity [7, 22] of 20.5 MFI, a fluorescence intensity [7, 23] of 20.5 MFI and a fluorescence intensity [7, 24] of 19.2 MFI. The fluorescence intensity [7, 25] was 21 MFI, the fluorescence intensity [7, 26] was 20.5 MFI and the fluorescence intensity [7, 27] was 21.5 MFI. The fluorescence intensity [7, 28] was 20 MFI, the fluorescence intensity [7, 29] was 23.5 MFI and the fluorescence intensity [8, 22] was 31.8 MFI. For the same binder, the fluorescence intensity [8, 23] was 29.8 MFI, the fluorescence intensity [8, 24] was 31.5 MFI and the fluorescence intensity [8, 25] was 29 MFI.

B2: 4-127.3 (protein)
chain 1: QVQLQESGPGLVKPSETLSLTCAVSGYSISSGYGWSWIRQPPGKGLEWIGYIGGSSGSTNYNPSLKSRVTVSKDTSKNQFSLKLSSVTAADTAVYYCARADYCTSTTCYGPNRFDVWGPGVLVTVSS
chain 2: QAAPTQSPSVSGSAGQSVTISCTGSSSDIGYYNGVSWYQHHPGKAPKLMIYEVSKRPSGVSNRFSGSKSGNTASLTISGLQAADEADYFCSSYAGSGTYIFGAGTRLTVL
For B2, the fluorescence intensity [9, 26] was 23 MFI, the fluorescence intensity [9, 27] was 22.5 MFI and the fluorescence intensity [9, 28] was 26 MFI. For the same binder, the fluorescence intensity [9, 29] was 37.5 MFI, the fluorescence intensity [10, 22] was 20 MFI and the fluorescence intensity [10, 23] was 19.5 MFI. It also gave a fluorescence intensity [10, 24] of 20.8 MFI, a fluorescence intensity [10, 25] of 20.5 MFI and a fluorescence intensity [10, 26] of 20 MFI. The fluorescence intensity [10, 27] was 20.5 MFI, the fluorescence intensity [10, 28] was 23.5 MFI and the fluorescence intensity [10, 29] was 35 MFI. The fluorescence intensity [11, 22] was 21.5 MFI, the fluorescence intensity [11, 23] was 34 MFI and the fluorescence intensity [11, 24] was 58.5 MFI. The fluorescence intensity [11, 25] was 76.5 MFI, the fluorescence intensity [11, 26] was 65 MFI and the fluorescence intensity [11, 27] was 73.8 MFI. It also gave a fluorescence intensity [11, 28] of 81.2 MFI, a fluorescence intensity [11, 29] of 108 MFI and a fluorescence intensity [12, 22] of 18.8 MFI. For the same binder, the fluorescence intensity [12, 23] was 19 MFI, the fluorescence intensity [12, 24] was 16.5 MFI and the fluorescence intensity [12, 25] was 18.2 MFI. It also gave a fluorescence intensity [12, 26] of 18 MFI, a fluorescence intensity [12, 27] of 19 MFI and a fluorescence intensity [12, 28] of 20 MFI. The fluorescence intensity [12, 29] was 23.5 MFI, the fluorescence intensity [13, 22] was 21.5 MFI and the fluorescence intensity [13, 23] was 19.8 MFI. The fluorescence intensity [13, 24] was 20.5 MFI, the fluorescence intensity [13, 25] was 21.5 MFI and the fluorescence intensity [13, 26] was 20.5 MFI. The fluorescence intensity [13, 27] was 21.5 MFI, the fluorescence intensity [13, 28] was 33.5 MFI and the fluorescence intensity [13, 29] was 117 MFI. The fluorescence intensity [14, 22] was 17.2 MFI, the fluorescence intensity [14, 23] was 17.5 MFI and the fluorescence intensity [14, 24] was 16 MFI. The fluorescence intensity [14, 25] was 17.2 MFI, the fluorescence intensity [14, 26] was 16.5 MFI and the fluorescence intensity [14, 27] was 16 MFI. The fluorescence intensity [14, 28] was 19.5 MFI, the fluorescence intensity [14, 29] was 35.5 MFI and the fluorescence intensity [15, 22] was 16.2 MFI. For the same binder, the fluorescence intensity [15, 23] was 16 MFI, the fluorescence intensity [15, 24] was 17 MFI and the fluorescence intensity [15, 25] was 15.5 MFI. For the same binder, the fluorescence intensity [15, 26] was 17.8 MFI, the fluorescence intensity [15, 27] was 17.5 MFI and the fluorescence intensity [15, 28] was 17.5 MFI. The fluorescence intensity [15, 29] was 31 MFI, the fluorescence intensity [16, 22] was 15.5 MFI and the fluorescence intensity [16, 23] was 15 MFI. The fluorescence intensity [16, 24] was 14.5 MFI, the fluorescence intensity [16, 25] was 16 MFI and the fluorescence intensity [16, 26] was 15.5 MFI. The fluorescence intensity [16, 27] was 18 MFI, the fluorescence intensity [16, 28] was 26 MFI and the fluorescence intensity [16, 29] was 80.2 MFI. The fluorescence intensity [17, 22] was 22 MFI, the fluorescence intensity [17, 23] was 22 MFI and the fluorescence intensity [17, 24] was 21 MFI. For the same binder, the fluorescence intensity [17, 25] was 22 MFI, the fluorescence intensity [17, 26] was 23 MFI and the fluorescence intensity [17, 27] was 25 MFI. For the same binder, the fluorescence intensity [17, 28] was 30 MFI, the fluorescence intensity [17, 29] was 47.2 MFI and the fluorescence intensity [18, 22] was 21 MFI. For the same binder, the fluorescence intensity [18, 23] was 21 MFI, the fluorescence intensity [18, 24] was 21 MFI and the fluorescence intensity [18, 25] was 19.5 MFI. It also gave a fluorescence intensity [18, 26] of 19 MFI, a fluorescence intensity [18, 27] of 19.8 MFI and a fluorescence intensity [18, 28] of 22 MFI. It also gave a fluorescence intensity [18, 29] of 39.5 MFI, a fluorescence intensity [19, 22] of 18 MFI and a fluorescence intensity [19, 23] of 18.5 MFI. For the same binder, the fluorescence intensity [19, 24] was 17 MFI, the fluorescence intensity [19, 25] was 17.5 MFI and the fluorescence intensity [19, 26] was 16.5 MFI. The fluorescence intensity [19, 27] was 17.2 MFI, the fluorescence intensity [19, 28] was 19.2 MFI and the fluorescence intensity [19, 29] was 29 MFI. For the same binder, the fluorescence intensity [20, 22] was 15.8 MFI, the fluorescence intensity [20, 23] was 16.2 MFI and the fluorescence intensity [20, 24] was 15.5 MFI. It also gave a fluorescence intensity [20, 25] of 15.5 MFI, a fluorescence intensity [20, 26] of 17 MFI and a fluorescence intensity [20, 27] of 16.5 MFI. The fluorescence intensity [20, 28] was 19 MFI, the fluorescence intensity [20, 29] was 31.8 MFI and the fluorescence intensity [21, 22] was 15.5 MFI. It also gave a fluorescence intensity [21, 23] of 16.2 MFI, a fluorescence intensity [21, 24] of 16.5 MFI and a fluorescence intensity [21, 25] of 16 MFI. For the same binder, the fluorescence intensity [21, 26] was 16.5 MFI, the fluorescence intensity [21, 27] was 16.5 MFI and the fluorescence intensity [21, 28] was 17 MFI. The fluorescence intensity [21, 29] was 24.5 MFI.
